# Some of the results follow.
# B1: Lb MiSSP8 (Laccaria bicolor) (protein)
# chain: MYFHTLFACATLMLITTAHASPTVINSLDSRKADLNGDVEARHAADWRRDSDWRRDSDWRRDSDWRRDSD
# Experiments:
# Assay in all cases: glycan array binding signal (z-score within array); higher = stronger binding
# Conditions in all cases: glycan notation: IUPAC condensed, linker removed
# [1] = target: GlcNAc(b1-3)Gal(b1-4)GlcNAc(b1-3)Gal(b1-4)GlcNAc(b1-3)GalNAc
# How it was run: (§1)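 Glycan array data were curated from 3228 arrays in the Consortium for Functional Glycomics database and kept only where the protein sequence was available. Glycan names were converted to IUPAC-condensed notation, and columns mapping to the same glycan were averaged. The binding signal is a within-array Z-score, averaged across arrays of the same protein sequence at different concentrations or buffers and across linkers. Negative Z-scores can be read as non-binding.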
# [2] = target: GlcNAc(b1-3)Gal(b1-4)GlcNAc(b1-3)GalNAc
# How it was run: as §1
# [3] = target: GlcNAc(b1-3)Gal(b1-4)GlcNAc(b1-3)[GlcNAc(b1-3)Gal(b1-4)GlcNAc(b1-3)]GalNAc
# How it was run: as §1
# [4] = target: GlcNAc(b1-3)Gal(b1-4)GlcNAc(b1-6)[Gal(b1-3)]GalNAc
# How it was run: as §1
# [5] = target: GlcNAc(b1-3)Gal(b1-4)GlcNAc(b1-6)[GlcNAc(b1-3)Gal(b1-3)]GalNAc
# How it was run: as §1
# [6] = target: GlcNAc(b1-3)Gal(b1-4)GlcNAc(b1-6)[GlcNAc(b1-3)]Gal(b1-4)GlcNAc
# How it was run: as §1
# GlcNAc(b1-3)GalNAc = target: GlcNAc(b1-3)GalNAc
# How it was run: as §1
# GlcNAc(b1-3)Man = target: GlcNAc(b1-3)Man
# How it was run: as §1
# [7] = target: GlcNAc(b1-3)[GlcNAc(b1-4)][GlcNAc(b1-6)]GlcNAc
# How it was run: as §1
# [8] = target: GlcNAc(b1-3)[GlcNAc(b1-6)]Gal(b1-4)GlcNAc
# How it was run: as §1
# [9] = target: GlcNAc(b1-3)[GlcNAc(b1-6)]GalNAc
# How it was run: as §1
# [10] = target: GlcNAc(b1-4)Gal(b1-4)GlcNAc
# How it was run: as §1
# GlcNAc(b1-4)GlcNAc = target: GlcNAc(b1-4)GlcNAc
# How it was run: as §1
# [11] = target: GlcNAc(b1-4)GlcNAc(b1-4)GlcNAc
# How it was run: as §1
# [12] = target: GlcNAc(b1-4)GlcNAc(b1-4)GlcNAc(b1-4)GlcNAc(b1-4)GlcNAc
# How it was run: as §1
# [13] = target: GlcNAc(b1-4)GlcNAc(b1-4)GlcNAc(b1-4)GlcNAc(b1-4)GlcNAc(b1-4)GlcNAc
# How it was run: as §1
# [14] = target: GlcNAc(b1-4)[GlcNAc(b1-6)]GalNAc
# How it was run: as §1
# [15] = target: GlcNAc(b1-6)Gal(b1-4)GlcNAc
# How it was run: as §1
# GlcNAc(b1-6)GalNAc = target: GlcNAc(b1-6)GalNAc
# How it was run: as §1
# [16] = target: GlcNAc6S(b1-3)Gal(b1-4)GlcNAc
# How it was run: as §1
# Kdn(a2-3)Gal(b1-3)GalNAc = target: Kdn(a2-3)Gal(b1-3)GalNAc
# How it was run: as §1
# Kdn(a2-3)Gal(b1-3)GlcNAc = target: Kdn(a2-3)Gal(b1-3)GlcNAc
# How it was run: as §1
# Kdn(a2-3)Gal(b1-4)Glc = target: Kdn(a2-3)Gal(b1-4)Glc
# How it was run: as §1
# Kdn(a2-3)Gal(b1-4)GlcNAc = target: Kdn(a2-3)Gal(b1-4)GlcNAc
# How it was run: as §1
# [17] = target: Kdn(a2-3)Gal(b1-4)[Fuc(a1-3)]GlcNAc
# How it was run: as §1
# Kdn(a2-6)Gal(b1-4)GlcNAc = target: Kdn(a2-6)Gal(b1-4)GlcNAc
# How it was run: as §1
# [18] = target: Man(a1-2)Man(a1-2)Man(a1-3)Man
# How it was run: as §1
# [19] = target: Man(a1-2)Man(a1-2)Man(a1-6)[Man(a1-3)]Man
# How it was run: as §1
# Man(a1-2)Man(a1-3)Man = target: Man(a1-2)Man(a1-3)Man
# How it was run: as §1
# [20] = target: Man(a1-2)Man(a1-3)[Man(a1-2)Man(a1-6)]Man
# How it was run: as §1
# [21] = target: Man(a1-2)Man(a1-3)[Man(a1-2)Man(a1-6)]Man(a1-6)[Man(a1-2)Man(a1-2)Man(a1-3)]Man
# How it was run: as §1
# [22] = target: Man(a1-2)Man(a1-3)[Man(a1-2)Man(a1-6)]Man(a1-6)[Man(a1-2)Man(a1-2)Man(a1-3)]Man(b1-4)GlcNAc(b1-4)GlcNAc
# How it was run: as §1
# [23] = target: Man(a1-2)Man(a1-3)[Man(a1-6)]Man(a1-6)[Man(a1-2)Man(a1-3)]Man(b1-4)GlcNAc(b1-4)GlcNAc
# How it was run: as §1
# [24] = target: Man(a1-2)Man(a1-6)[Man(a1-3)]Man(a1-6)[Man(a1-2)Man(a1-2)Man(a1-3)]Man
# How it was run: as §1
# [25] = target: Man(a1-2)Man(a1-6)[Man(a1-3)]Man(a1-6)[Man(a1-2)Man(a1-2)Man(a1-3)]Man(b1-4)GlcNAc(b1-4)GlcNAc
# How it was run: as §1
# Man(a1-3)[Man(a1-6)]Man = target: Man(a1-3)[Man(a1-6)]Man
# How it was run: as §1
# [26] = target: Man(a1-3)[Man(a1-6)]Man(a1-6)[Man(a1-2)Man(a1-3)]Man(b1-4)GlcNAc(b1-4)GlcNAc
# How it was run: as §1
# [27] = target: Man(a1-3)[Man(a1-6)]Man(a1-6)[Man(a1-3)]Man
# How it was run: as §1
# [28] = target: Man(a1-3)[Man(a1-6)]Man(a1-6)[Man(a1-3)]Man(b1-4)GlcNAc(b1-4)GlcNAc
# How it was run: as §1
# [29] = target: Man(a1-3)[Man(a1-6)]Man(b1-4)GlcNAc(b1-4)GlcNAc
# How it was run: as §1
# [30] = target: Man(a1-3)[Man(a1-6)]Man(b1-4)GlcNAc(b1-4)[Fuc(a1-6)]GlcNAc
# How it was run: as §1
# Man(a1-6)Man = target: Man(a1-6)Man
# How it was run: as §1
# Man(b1-4)GlcNAc = target: Man(b1-4)GlcNAc
# How it was run: as §1
# MurNAc(b1-4)GlcNAc = target: MurNAc(b1-4)GlcNAc
# How it was run: as §1
# Neu5Ac(a2-3)Gal = target: Neu5Ac(a2-3)Gal
# How it was run: as §1
binder,measurement,setting,value
B1,glycan array binding signal (z-score),[1],-0.771
same,glycan array binding signal (z-score),[2],-0.405
same,glycan array binding signal (z-score),[3],0.105
same,glycan array binding signal (z-score),[4],-0.668
same,glycan array binding signal (z-score),[5],0.078
same,glycan array binding signal (z-score),[6],-0.937
same,glycan array binding signal (z-score),GlcNAc(b1-3)GalNAc,-0.606
same,glycan array binding signal (z-score),GlcNAc(b1-3)Man,0.416
same,glycan array binding signal (z-score),[7],-0.35
same,glycan array binding signal (z-score),[8],-1.04
same,glycan array binding signal (z-score),[9],-0.668
same,glycan array binding signal (z-score),[10],1.29
same,glycan array binding signal (z-score),GlcNAc(b1-4)GlcNAc,0.385
same,glycan array binding signal (z-score),[11],0.319
same,glycan array binding signal (z-score),[12],1.1
same,glycan array binding signal (z-score),[13],-0.343
same,glycan array binding signal (z-score),[14],-0.702
same,glycan array binding signal (z-score),[15],-0.157
same,glycan array binding signal (z-score),GlcNAc(b1-6)GalNAc,0.696
same,glycan array binding signal (z-score),[16],0.547
same,glycan array binding signal (z-score),Kdn(a2-3)Gal(b1-3)GalNAc,1.02
same,glycan array binding signal (z-score),Kdn(a2-3)Gal(b1-3)GlcNAc,-0.509
same,glycan array binding signal (z-score),Kdn(a2-3)Gal(b1-4)Glc,-0.254
same,glycan array binding signal (z-score),Kdn(a2-3)Gal(b1-4)GlcNAc,-0.985
same,glycan array binding signal (z-score),[17],-0.226
same,glycan array binding signal (z-score),Kdn(a2-6)Gal(b1-4)GlcNAc,-0.122
same,glycan array binding signal (z-score),[18],-0.336
same,glycan array binding signal (z-score),[19],-0.033
same,glycan array binding signal (z-score),Man(a1-2)Man(a1-3)Man,-0.709
same,glycan array binding signal (z-score),[20],-1.06
same,glycan array binding signal (z-score),[21],-0.778
same,glycan array binding signal (z-score),[22],-0.033
same,glycan array binding signal (z-score),[23],-0.564
same,glycan array binding signal (z-score),[24],-0.578
same,glycan array binding signal (z-score),[25],-0.122
same,glycan array binding signal (z-score),Man(a1-3)[Man(a1-6)]Man,0.768
same,glycan array binding signal (z-score),[26],-0.033
same,glycan array binding signal (z-score),[27],2.36
same,glycan array binding signal (z-score),[28],-0.813
same,glycan array binding signal (z-score),[29],-0.613
same,glycan array binding signal (z-score),[30],-0.412
same,glycan array binding signal (z-score),Man(a1-6)Man,0.43
same,glycan array binding signal (z-score),Man(b1-4)GlcNAc,0.74
same,glycan array binding signal (z-score),MurNAc(b1-4)GlcNAc,0.23
same,glycan array binding signal (z-score),Neu5Ac(a2-3)Gal,-0.606

# Reprinted at random: 2 entries already listed.
binder,measurement,setting,value
B1,glycan array binding signal (z-score),Man(a1-2)Man(a1-3)Man,-0.709
same,glycan array binding signal (z-score),Kdn(a2-3)Gal(b1-3)GlcNAc,-0.509

# — the supplement of paper PMC8728848
